Results as given in the supplement of paper PMC10849652.
Some of the results follow. Residues, ends and D or L forms follow the SMILES beside them. *: point of attachment. Cbz = O=C(OCc1ccccc1)*

Chains of the proteins cited; added tags and fusions are not shown. Lines headed by an entry give the natural chain unless they say otherwise; changes in a name come on top.
UniProt Q96G74: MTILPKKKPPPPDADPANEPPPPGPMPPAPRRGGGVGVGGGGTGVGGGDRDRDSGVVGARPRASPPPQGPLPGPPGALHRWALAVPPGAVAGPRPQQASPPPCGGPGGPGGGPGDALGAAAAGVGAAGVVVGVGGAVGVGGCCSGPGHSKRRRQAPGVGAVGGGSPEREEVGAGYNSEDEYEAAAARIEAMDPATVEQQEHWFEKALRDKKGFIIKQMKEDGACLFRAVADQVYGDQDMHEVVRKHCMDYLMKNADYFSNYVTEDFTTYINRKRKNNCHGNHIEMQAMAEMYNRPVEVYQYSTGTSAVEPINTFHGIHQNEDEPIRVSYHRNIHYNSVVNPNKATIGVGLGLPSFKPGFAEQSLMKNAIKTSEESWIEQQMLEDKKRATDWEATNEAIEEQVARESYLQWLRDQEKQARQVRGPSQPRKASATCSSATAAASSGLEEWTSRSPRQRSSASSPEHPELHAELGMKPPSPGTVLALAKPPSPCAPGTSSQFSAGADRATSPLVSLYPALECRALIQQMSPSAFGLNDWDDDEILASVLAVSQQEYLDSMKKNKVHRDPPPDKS
UniProt Q9Y266: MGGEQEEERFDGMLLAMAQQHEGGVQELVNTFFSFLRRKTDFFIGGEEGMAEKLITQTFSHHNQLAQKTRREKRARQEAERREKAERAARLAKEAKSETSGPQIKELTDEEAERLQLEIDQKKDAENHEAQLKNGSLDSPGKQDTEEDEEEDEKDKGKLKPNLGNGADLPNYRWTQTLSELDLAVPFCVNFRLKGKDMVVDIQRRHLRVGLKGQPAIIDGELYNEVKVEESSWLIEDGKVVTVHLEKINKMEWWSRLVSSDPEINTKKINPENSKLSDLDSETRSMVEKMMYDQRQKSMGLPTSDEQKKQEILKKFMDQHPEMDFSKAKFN
UniProt Q96MG7: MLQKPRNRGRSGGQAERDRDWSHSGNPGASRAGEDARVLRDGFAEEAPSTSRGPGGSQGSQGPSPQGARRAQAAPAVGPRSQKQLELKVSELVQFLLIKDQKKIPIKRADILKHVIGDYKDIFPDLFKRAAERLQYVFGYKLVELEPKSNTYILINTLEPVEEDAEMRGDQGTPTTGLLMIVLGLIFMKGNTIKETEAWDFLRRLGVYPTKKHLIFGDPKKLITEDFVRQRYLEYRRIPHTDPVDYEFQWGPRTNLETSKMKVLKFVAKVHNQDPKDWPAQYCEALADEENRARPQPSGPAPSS
UniProt P07237: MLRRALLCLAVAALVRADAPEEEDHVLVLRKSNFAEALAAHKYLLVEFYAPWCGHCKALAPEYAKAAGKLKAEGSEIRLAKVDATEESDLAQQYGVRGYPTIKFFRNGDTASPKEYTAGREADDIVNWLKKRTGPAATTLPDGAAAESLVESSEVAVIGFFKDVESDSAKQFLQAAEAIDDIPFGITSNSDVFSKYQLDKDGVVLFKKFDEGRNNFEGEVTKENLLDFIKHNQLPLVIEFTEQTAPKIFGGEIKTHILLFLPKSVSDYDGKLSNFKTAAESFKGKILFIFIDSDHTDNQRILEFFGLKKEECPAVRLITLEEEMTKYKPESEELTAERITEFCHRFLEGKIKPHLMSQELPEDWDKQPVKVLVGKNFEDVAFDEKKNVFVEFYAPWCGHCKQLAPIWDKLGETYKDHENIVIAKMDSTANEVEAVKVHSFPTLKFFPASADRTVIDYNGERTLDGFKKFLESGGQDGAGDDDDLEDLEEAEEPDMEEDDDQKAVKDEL
UniProt Q7Z417: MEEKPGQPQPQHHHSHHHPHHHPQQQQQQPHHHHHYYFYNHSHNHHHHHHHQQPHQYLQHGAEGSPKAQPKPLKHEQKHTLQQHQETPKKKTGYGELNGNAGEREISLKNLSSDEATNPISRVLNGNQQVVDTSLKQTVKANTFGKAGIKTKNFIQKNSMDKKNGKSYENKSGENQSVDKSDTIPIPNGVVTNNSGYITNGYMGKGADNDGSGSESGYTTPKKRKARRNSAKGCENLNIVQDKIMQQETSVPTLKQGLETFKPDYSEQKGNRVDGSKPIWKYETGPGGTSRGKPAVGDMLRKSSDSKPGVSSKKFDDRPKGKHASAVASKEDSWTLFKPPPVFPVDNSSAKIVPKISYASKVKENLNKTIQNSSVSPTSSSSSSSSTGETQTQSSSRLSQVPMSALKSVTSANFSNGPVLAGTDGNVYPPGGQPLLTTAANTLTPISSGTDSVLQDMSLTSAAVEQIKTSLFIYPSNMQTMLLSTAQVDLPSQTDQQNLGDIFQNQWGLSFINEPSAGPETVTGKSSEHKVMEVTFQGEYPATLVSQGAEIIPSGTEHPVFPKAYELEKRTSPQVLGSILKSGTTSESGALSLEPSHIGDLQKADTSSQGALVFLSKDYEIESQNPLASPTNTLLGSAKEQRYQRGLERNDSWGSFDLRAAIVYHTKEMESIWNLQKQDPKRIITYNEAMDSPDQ
UniProt Q96CV9, whole entry, looked up: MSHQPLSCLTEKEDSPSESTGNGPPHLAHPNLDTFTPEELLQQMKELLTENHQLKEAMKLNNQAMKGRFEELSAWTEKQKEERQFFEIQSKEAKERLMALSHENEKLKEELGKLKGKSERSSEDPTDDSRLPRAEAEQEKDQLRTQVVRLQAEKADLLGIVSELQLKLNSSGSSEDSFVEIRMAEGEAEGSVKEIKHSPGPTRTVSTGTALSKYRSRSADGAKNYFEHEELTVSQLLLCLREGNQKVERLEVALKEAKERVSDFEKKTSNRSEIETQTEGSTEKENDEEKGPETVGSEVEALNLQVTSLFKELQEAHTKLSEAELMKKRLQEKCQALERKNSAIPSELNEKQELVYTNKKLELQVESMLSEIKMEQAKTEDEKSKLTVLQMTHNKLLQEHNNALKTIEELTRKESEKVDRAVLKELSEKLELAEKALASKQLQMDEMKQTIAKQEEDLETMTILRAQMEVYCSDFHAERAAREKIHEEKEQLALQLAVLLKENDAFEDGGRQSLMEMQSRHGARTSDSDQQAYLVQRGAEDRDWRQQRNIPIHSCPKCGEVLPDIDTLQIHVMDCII
UniProt Q9Y5Y2: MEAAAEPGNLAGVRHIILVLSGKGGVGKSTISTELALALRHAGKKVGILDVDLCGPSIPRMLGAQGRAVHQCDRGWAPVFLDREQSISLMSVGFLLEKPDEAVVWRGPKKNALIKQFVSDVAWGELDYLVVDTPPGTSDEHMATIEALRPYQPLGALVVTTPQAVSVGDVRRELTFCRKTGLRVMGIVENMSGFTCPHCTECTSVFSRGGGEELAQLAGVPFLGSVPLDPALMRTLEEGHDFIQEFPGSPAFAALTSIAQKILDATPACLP
UniProt Q5SWX8: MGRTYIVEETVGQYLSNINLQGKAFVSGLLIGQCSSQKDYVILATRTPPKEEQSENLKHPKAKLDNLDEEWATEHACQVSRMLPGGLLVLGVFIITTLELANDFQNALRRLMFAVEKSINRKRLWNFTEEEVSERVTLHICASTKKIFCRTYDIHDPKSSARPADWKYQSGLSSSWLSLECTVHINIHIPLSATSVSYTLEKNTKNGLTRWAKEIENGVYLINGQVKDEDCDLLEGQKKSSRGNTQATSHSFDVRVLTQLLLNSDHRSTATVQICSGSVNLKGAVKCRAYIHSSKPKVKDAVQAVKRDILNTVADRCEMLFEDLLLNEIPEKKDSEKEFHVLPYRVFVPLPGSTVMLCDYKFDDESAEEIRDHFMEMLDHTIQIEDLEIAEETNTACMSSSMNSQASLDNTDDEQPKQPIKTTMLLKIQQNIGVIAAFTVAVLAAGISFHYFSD
UniProt Q9NV35: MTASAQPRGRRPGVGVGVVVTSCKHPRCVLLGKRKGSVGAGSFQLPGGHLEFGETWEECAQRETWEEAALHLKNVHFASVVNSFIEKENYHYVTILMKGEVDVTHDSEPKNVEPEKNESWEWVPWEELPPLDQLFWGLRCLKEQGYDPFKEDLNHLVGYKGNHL
UniProt Q32P28: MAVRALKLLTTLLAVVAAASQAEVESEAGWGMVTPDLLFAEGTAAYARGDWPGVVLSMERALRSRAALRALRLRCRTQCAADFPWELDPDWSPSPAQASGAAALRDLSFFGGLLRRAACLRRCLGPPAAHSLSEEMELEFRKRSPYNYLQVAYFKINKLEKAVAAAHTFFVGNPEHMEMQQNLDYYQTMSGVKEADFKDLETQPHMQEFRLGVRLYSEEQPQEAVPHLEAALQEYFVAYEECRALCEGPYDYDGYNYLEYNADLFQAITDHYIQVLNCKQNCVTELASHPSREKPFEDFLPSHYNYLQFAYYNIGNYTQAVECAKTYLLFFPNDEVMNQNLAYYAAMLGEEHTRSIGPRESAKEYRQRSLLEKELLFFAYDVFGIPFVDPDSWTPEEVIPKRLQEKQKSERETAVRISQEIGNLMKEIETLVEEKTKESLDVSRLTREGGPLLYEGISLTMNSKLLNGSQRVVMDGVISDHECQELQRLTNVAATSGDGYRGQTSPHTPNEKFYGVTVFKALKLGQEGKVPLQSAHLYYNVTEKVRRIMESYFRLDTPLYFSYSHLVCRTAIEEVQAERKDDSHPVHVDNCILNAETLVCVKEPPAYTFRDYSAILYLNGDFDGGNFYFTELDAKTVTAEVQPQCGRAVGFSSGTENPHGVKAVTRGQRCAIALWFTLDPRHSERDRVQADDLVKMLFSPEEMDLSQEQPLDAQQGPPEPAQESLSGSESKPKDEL
UniProt Q8TCD5: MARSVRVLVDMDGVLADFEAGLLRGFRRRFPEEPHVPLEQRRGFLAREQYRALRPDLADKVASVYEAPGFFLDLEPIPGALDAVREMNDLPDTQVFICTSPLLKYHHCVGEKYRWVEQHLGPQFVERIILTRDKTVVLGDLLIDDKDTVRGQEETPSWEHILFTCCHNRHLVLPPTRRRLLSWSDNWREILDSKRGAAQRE
UniProt Q9H8K7: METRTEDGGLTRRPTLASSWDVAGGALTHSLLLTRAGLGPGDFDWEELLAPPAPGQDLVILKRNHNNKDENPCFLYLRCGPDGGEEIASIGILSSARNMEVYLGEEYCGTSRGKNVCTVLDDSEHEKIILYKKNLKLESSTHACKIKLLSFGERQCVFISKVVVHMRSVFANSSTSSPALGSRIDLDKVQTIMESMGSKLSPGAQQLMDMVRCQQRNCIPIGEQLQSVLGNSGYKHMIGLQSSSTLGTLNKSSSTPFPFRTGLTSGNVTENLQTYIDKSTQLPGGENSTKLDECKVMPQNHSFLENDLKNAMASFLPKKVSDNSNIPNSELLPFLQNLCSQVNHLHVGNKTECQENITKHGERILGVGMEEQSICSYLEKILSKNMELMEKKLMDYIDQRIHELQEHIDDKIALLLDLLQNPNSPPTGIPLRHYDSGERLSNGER
UniProt O15294: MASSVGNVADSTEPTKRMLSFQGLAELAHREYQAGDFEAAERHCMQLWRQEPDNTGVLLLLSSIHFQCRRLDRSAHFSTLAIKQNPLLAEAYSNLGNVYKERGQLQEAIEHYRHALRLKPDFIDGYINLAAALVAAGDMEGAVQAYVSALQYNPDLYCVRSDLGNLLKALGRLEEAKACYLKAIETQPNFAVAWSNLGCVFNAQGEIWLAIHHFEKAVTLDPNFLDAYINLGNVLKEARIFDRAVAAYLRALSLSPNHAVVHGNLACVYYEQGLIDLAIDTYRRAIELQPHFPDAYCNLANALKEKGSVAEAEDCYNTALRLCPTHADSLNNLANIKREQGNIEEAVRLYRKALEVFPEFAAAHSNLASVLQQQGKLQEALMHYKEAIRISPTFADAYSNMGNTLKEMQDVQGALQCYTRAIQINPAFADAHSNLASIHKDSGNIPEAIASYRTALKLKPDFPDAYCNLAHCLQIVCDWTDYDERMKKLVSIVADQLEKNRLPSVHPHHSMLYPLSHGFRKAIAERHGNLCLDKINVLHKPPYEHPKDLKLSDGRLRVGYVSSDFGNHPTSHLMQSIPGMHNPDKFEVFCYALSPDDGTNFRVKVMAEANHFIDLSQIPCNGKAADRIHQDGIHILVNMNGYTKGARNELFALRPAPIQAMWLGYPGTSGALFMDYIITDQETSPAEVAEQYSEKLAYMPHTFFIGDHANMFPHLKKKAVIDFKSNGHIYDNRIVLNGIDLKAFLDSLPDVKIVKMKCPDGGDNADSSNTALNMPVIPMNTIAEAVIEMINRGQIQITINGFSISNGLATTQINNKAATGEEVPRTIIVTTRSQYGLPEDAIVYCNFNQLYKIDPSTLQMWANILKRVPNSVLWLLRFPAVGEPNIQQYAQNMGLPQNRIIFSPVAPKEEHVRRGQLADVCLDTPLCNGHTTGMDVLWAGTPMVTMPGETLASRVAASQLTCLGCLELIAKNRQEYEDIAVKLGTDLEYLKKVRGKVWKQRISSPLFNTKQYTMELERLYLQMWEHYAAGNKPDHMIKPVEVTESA

Columns and labels:
Test in all cases: log2 fold change, soluble protein after heating vs DMSO (PISA); higher = thermal stabilisation; K562 cells, 10 uM, 30 min; active = over 0.2 and 3.5 SD of the protein, either way, in both replicates (recomputed)
IRAK-1-4 Inhibitor I = compound: C1COCCN1CCN2C3=CC=CC=C3N=C2NC(=O)C4=CC(=CC=C4)[N+](=O)[O-] [IRAK-1-4 Inhibitor I]
Summary of the method: (§1)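 Soluble protein was quantified by TMTpro 16plex LC-MS/MS after channel sums were equalised. It was obtained as the supernatant after 21,000xg for 90 min from pooled aliquots of K562 cells (2×10^6 cells/mL, 10 μM compound, 30 min) heated for 3 min across 48°C-58°C and extracted in PBS with 0.5% NP-40 at 4°C. Thermal stability values are relative to control samples and come from duplicates. They are given as log2 fold changes.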

ibrutinib = compound: C=CC(=O)N1CCC[C@@H](n2nc(-c3ccc(Oc4ccccc4)cc3)c3c(N)ncnc32)C1 [ibrutinib]
Summary of the method: as §1

[1] = compound: CC(=O)c1cnc2ccc(-c3cc(Cl)c(O)c(Cl)c3)nc2c1N[C@H]1CC[C@H](CN(C)C)CC1
Summary of the method: as §1

ralimetinib = compound: CC(C)(C)Cn1c(N)nc2ccc(-c3[nH]c(C(C)(C)C)nc3-c3ccc(F)cc3)nc21 [ralimetinib]
Summary of the method: as §1

[2] = compound: CC(C)(O)CC(=O)NCCn1ccc2ncnc(Nc3ccc(Oc4cccc(C(F)(F)F)c4)c(Cl)c3)c21
Summary of the method: as §1

[3] = compound: CC(C)C1=C2N=C(C=C(N2N=C1)NCC3=CC=CC=C3)NCCCCCCN
Summary of the method: as §1

[4] = compound: CC(C)C[C@@H](C=O)NC(=O)[C@H](CC(C)C)NC(=O)[C@H](CC(C)C)NC(=O)OCc1ccccc1
Summary of the method: as §1

pinometostat = compound: CC(C)N(C[C@H]1O[C@@H](n2cnc3c(N)ncnc32)[C@H](O)[C@@H]1O)[C@H]1C[C@@H](CCc2nc3cc(C(C)(C)C)ccc3[nH]2)C1 [pinometostat]
Summary of the method: as §1

[5] = compound: CC1=C(C(CC(=O)N1)C2=CC=C(C=C2)C(F)(F)F)C(=O)NC3=C(C=C4C(=C3)C=NN4)F
Summary of the method: as §1

[6] = compound: CC1=C(C2=C(C=C1)C(=O)C3=CC=CC=C3N2CCCN)C
Summary of the method: as §1

[7] = compound: CC1=C(C=C(C=C1)NC(=O)C2=CC(=CC=C2)C(C)(C)C#N)NC3=CC4=C(C=C3)N=CN(C4=O)C
Summary of the method: as §1

[8] = compound: CC1=C(C=C(C=C1)NC(=O)C2=CC(=CC=C2)N(C)C)NC(=O)C3=CC=C(C=C3)O
Summary of the method: as §1

[9] = compound: CC1=CC=C(C=C1)SC2=C3C=C(SC3=CN=C2)C(=O)N
Summary of the method: as §1

[10] = compound: CC1=NC(=CC=C1)C2=C(N=C(N2)C(C)(C)C)C3=CC4=NC=CN=C4C=C3
Summary of the method: as §1

Nexturastat A = compound: CCCCN(Cc1ccc(C(=O)NO)cc1)C(=O)Nc1ccccc1 [Nexturastat A]
Summary of the method: as §1

vemurafenib = compound: CCCS(=O)(=O)Nc1ccc(F)c(C(=O)c2c[nH]c3ncc(-c4ccc(Cl)cc4)cc23)c1F [vemurafenib]
Summary of the method: as §1

[11] = compound: CCCS(=O)(=O)Nc1ccc(F)c(C(=O)c2c[nH]c3ncc(Cl)cc23)c1F
Summary of the method: as §1

[12] = compound: CCCc1cc(C)[nH]c(=O)c1CNC(=O)c1cc(-c2ccnc(N3CCN(C)CC3)c2)cc2c1cnn2C(C)C
Summary of the method: as §1

givinostat = compound: CCN(CC)Cc1ccc2cc(COC(=O)Nc3ccc(C(=O)NO)cc3)ccc2c1 [givinostat]
Summary of the method: as §1

barasertib = compound: CCN(CCCOc1ccc2c(Nc3cc(CC(=O)Nc4cccc(F)c4)[nH]n3)ncnc2c1)CCOP(=O)(O)O [barasertib]
Summary of the method: as §1

Measured: log2 fold change

NT5C3A (UniProt Q9H0P0)
inactive: IRAK-1-4 Inhibitor I -0.07 | ibrutinib -0.03 | [1] -0.028 | ralimetinib 0.025 | [2] 0.025 | [3] -0.244 | [4] 0.021 | pinometostat 0.169 | [5] -0.041 | [6] -0.014 | [7] 0.019 | [8] -0.047 | [9] 0.023 | [10] -0.073 | Nexturastat A 0.183 | vemurafenib 0.029 | [11] 0.069 | [12] 0.058 | givinostat 0.102 | barasertib 0.085

OTUD5 isoform 5 (UniProt Q96G74)
inactive: IRAK-1-4 Inhibitor I 0.054 | ibrutinib 0 | [1] -0.137 | ralimetinib 0.004 | [2] 0.011 | [3] 0.014 | [4] 0 | pinometostat 0.031 | [5] 0.018 | [6] -0.063 | [7] -0.076 | [8] -0.051 | [9] 0.043 | [10] -0.022 | Nexturastat A 0.026 | vemurafenib 0.026 | [11] 0.052 | [12] -0.062 | givinostat 0.052 | barasertib 0.038

NUDC (UniProt Q9Y266)
inactive: IRAK-1-4 Inhibitor I 0.053 | ibrutinib -0.017 | [1] -0.007 | ralimetinib -0.029 | [2] -0.031 | [3] -0.019 | [4] 0.011 | pinometostat -0.007 | [5] 0 | [6] 0.012 | [7] 0.001 | [8] 0.014 | [9] -0.008 | [10] 0.034 | Nexturastat A -0.088 | vemurafenib 0.016 | [11] 0.027 | [12] -0.048 | givinostat -0.006 | barasertib 0.028

NSMCE3 (UniProt Q96MG7)
inactive: IRAK-1-4 Inhibitor I 0 | ibrutinib 0 | [1] -0.068 | ralimetinib -0.032 | [2] -0.009 | [3] 0.088 | [4] 0.007 | pinometostat -0.186 | [5] -0.02 | [6] -0.246 | [7] -0.007 | [8] -0.035 | [9] 0.019 | [10] 0.014 | Nexturastat A 0.005 | vemurafenib -0.016 | [11] 0.027 | [12] -0.014 | givinostat 0 | barasertib 0.014

Quoted at random: 2 records from the list
NUDC (UniProt Q9Y266)
inactive: IRAK-1-4 Inhibitor I 0.053 | ibrutinib -0.017 | [1] -0.007 | ralimetinib -0.029 | [2] -0.031 | [3] -0.019 | [4] 0.011 | pinometostat -0.007 | [5] 0 | [6] 0.012 | [7] 0.001 | [8] 0.014 | [9] -0.008 | [10] 0.034 | Nexturastat A -0.088 | vemurafenib 0.016 | [11] 0.027 | [12] -0.048 | givinostat -0.006 | barasertib 0.028

NT5C3A (UniProt Q9H0P0)
inactive: IRAK-1-4 Inhibitor I -0.07 | ibrutinib -0.03 | [1] -0.028 | ralimetinib 0.025 | [2] 0.025 | [3] -0.244 | [4] 0.021 | pinometostat 0.169 | [5] -0.041 | [6] -0.014 | [7] 0.019 | [8] -0.047 | [9] 0.023 | [10] -0.073 | Nexturastat A 0.183 | vemurafenib 0.029 | [11] 0.069 | [12] 0.058 | givinostat 0.102 | barasertib 0.085

Later entries

P4HB (UniProt P07237)
inactive: IRAK-1-4 Inhibitor I 0.042 | ibrutinib -0.022 | [1] 0.017 | ralimetinib -0.07 | [2] 0.03 | [3] 0.037 | [4] -0.042 | pinometostat -0.063 | [5] 0.021 | [6] -0.029 | [7] -0.008 | [8] 0.019 | [9] -0.007 | [10] 0.007 | Nexturastat A -0.095 | vemurafenib -0.027 | [11] -0.044 | [12] 0.003 | givinostat -0.039 | barasertib 0.004

OTUD7B (UniProt Q6GQQ9)
inactive: IRAK-1-4 Inhibitor I -0.16 | ibrutinib -0.123 | [1] -0.183 | ralimetinib 0.051 | [2] -0.092 | [3] -0.283 | [4] -0.18 | pinometostat -0.178 | [5] -0.104 | [6] 0.081 | [7] 0.041 | [8] -0.028 | [9] -0.019 | [10] -0.14 | Nexturastat A -0.03 | vemurafenib -0.001 | [11] 0.127 | [12] -0.051 | givinostat 0.133 | barasertib 0.075

NUFIP2 (UniProt Q7Z417)
inactive: IRAK-1-4 Inhibitor I -0.028 | ibrutinib 0.022 | [1] 0.037 | ralimetinib 0.096 | [2] 0.049 | [3] -0.025 | [4] 0.003 | pinometostat 0.116 | [5] 0.003 | [6] 0.017 | [7] 0.019 | [8] 0.026 | [9] -0.052 | [10] -0.007 | Nexturastat A 0.163 | vemurafenib -0.022 | [11] -0.023 | [12] 0.104 | givinostat 0.035 | barasertib -0.043

OPTN (UniProt Q96CV9)
inactive: IRAK-1-4 Inhibitor I -0.046 | ibrutinib 0.013 | [1] -0.016 | ralimetinib 0.021 | [2] 0.012 | [3] -0.195 | [4] -0.081 | pinometostat 0.114 | [5] 0.002 | [6] -0.078 | [7] -0.081 | [8] 0.052 | [9] -0.103 | [10] -0.031 | Nexturastat A -0.189 | vemurafenib 0.083 | [11] -0.08 | [12] -0.043 | givinostat 0.08 | barasertib -0.056

NUBP2 (UniProt Q9Y5Y2)
inactive: IRAK-1-4 Inhibitor I 0.051 | ibrutinib 0.037 | [1] -0.057 | ralimetinib -0.001 | [2] -0.1 | [3] -0.043 | [4] -0.053 | pinometostat 0.003 | [5] 0.022 | [6] 0.027 | [7] -0.007 | [8] -0.012 | [9] 0.021 | [10] 0.027 | Nexturastat A 0.006 | vemurafenib 0.007 | [11] 0.006 | [12] -0.013 | givinostat -0.007 | barasertib 0.038

ODR4 (UniProt Q5SWX8)
inactive: IRAK-1-4 Inhibitor I -0.083 | ibrutinib -0.06 | [1] -0.012 | ralimetinib -0.005 | [2] -0.004 | [3] 0.087 | [4] -0.006 | pinometostat 0.045 | [5] -0.038 | [6] 0.093 | [7] -0.054 | [8] -0.03 | [9] 0.015 | [10] -0.027 | Nexturastat A 0.087 | vemurafenib 0.033 | [11] 0.032 | [12] 0.069 | givinostat 0.034 | barasertib 0

NUDT15 (UniProt Q9NV35)
inactive: IRAK-1-4 Inhibitor I 0.016 | ibrutinib -0.001 | [1] -0.012 | ralimetinib 0.024 | [2] -0.026 | [3] 0.018 | [4] -0.018 | pinometostat 0.008 | [5] -0.021 | [6] 0.036 | [7] 0.025 | [8] -0.03 | [9] 0.004 | [10] -0.057 | Nexturastat A -0.034 | vemurafenib 0.099 | [11] 0.072 | [12] -0.227 | givinostat 0.013 | barasertib -0.002

P3H1 (UniProt Q32P28)
inactive: IRAK-1-4 Inhibitor I -0.058 | ibrutinib -0.029 | [1] 0.062 | ralimetinib 0.034 | [2] 0.049 | [3] -0.058 | [4] 0.063 | pinometostat 0.048 | [5] -0.004 | [6] 0 | [7] 0.02 | [8] -0.011 | [9] -0.043 | [10] -0.083 | Nexturastat A 0.056 | vemurafenib -0.063 | [11] -0.013 | [12] 0.034 | givinostat 0 | barasertib -0.01

NT5C (UniProt Q8TCD5)
inactive: IRAK-1-4 Inhibitor I 0.035 | ibrutinib 0.034 | [1] 0.021 | ralimetinib -0.052 | [2] 0.031 | [3] 0.045 | [4] -0.013 | pinometostat -0.027 | [5] 0.03 | [6] 0.011 | [7] -0.027 | [8] 0.025 | [9] -0.019 | [10] -0.02 | Nexturastat A -0.05 | vemurafenib -0.003 | [11] -0.024 | [12] -0.042 | givinostat -0.11 | barasertib -0.011

PAAT (UniProt Q9H8K7)
inactive: IRAK-1-4 Inhibitor I 0.058 | ibrutinib -0.092 | [1] 0.063 | ralimetinib -0.001 | [2] 0.07 | [3] 0.041 | [4] 0.032 | pinometostat -0.074 | [5] -0.108 | [6] 0.004 | [7] -0.071 | [8] -0.022 | [9] -0.011 | [10] 0.008 | Nexturastat A -0.002 | vemurafenib -0.007 | [11] 0.061 | [12] -0.351 | givinostat -0.043 | barasertib 0.111

OGT (UniProt O15294)
inactive: IRAK-1-4 Inhibitor I -0.016 | ibrutinib -0.005 | [1] -0.081 | ralimetinib 0.013 | [2] -0.04 | [3] 0.012 | [4] 0.028 | pinometostat -0.016 | [5] -0.064 | [6] 0.148 | [7] 0.034 | [8] -0.028 | [9] -0.026 | [10] 0.024 | Nexturastat A 0.035 | vemurafenib 0.064 | [11] 0.043 | [12] 0.023 | givinostat 0.037 | barasertib 0.007
